Data source: PubChem BioAssay AID686943 (Drosophila RNAi Screening Center, 2013)
The deposit covers about 23,000 reagents; shown is a random part of those that have a named target and a result. 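Extra replicates exist only for a retested subset of genes; insulin dose and duration not given; both raised and lowered dpERK matter.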 Not all columns of the deposit are shown. Not given: the amount of reagent, the time to read-out.

Assay: 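Knockdowns that increase or decrease active ERK after insulin receptor stimulation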 (primary screen)
Cell system: Drosophila S2R+ haemocyte-like cells expressing YFP-tagged ERK (Rolled)
Knock-down reagent: long dsRNA against Drosophila genes
Conditions: insulin stimulation versus unstimulated cells; dose and duration not given
Measurement: 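Antibody staining for doubly phosphorylated ERK divided by ERK-YFP signal, as plate z-scores, in insulin-treated and untreated cells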
Reading the numbers: replicate 1, z-score of dpERK with insulin: higher = more active ERK per ERK-YFP after insulin

gene | dsRNA | replicate 1, z-score of dpERK with insulin
wts | DRSC17096 | -0.64
RpL19 | DRSC04649 | -3.2
CAP | DRSC05215 | -0.15
CAP | DRSC06743 | 0.85
CAP | DRSC06744 | 0.17
CAP | DRSC06745 | -0.35
CAP | DRSC06846 | 0.28
Or74a | DRSC11245 | -0.12
dpr16 | DRSC12217 | -0.25
dpr16 | DRSC12249 | -0.87
CG17490 | DRSC03794 | -1.08
CG17490 | DRSC03797 | -1.02
CG2444 | DRSC19846 | -0.81
CG9626 | DRSC16525 | 0.23
CG13471 | DRSC10015 | 0.56
CG10000 | DRSC14170 | 1.02
Pfdn2 | DRSC10618 | -0.64
Rpp30 | DRSC00320 | 0.28
Slc45-1 | DRSC10427 | 0.36
CG4891 | DRSC01936 | 1.29
CG32523 | DRSC20510 | 0.42

6 of these entries, reformatted:
{"gene":"CAP","dsRNA":"DRSC06744","replicate 1, z-score of dpERK with insulin":0.17}
{"gene":"CAP","dsRNA":"DRSC06745","replicate 1, z-score of dpERK with insulin":-0.35}
{"gene":"CAP","dsRNA":"DRSC06846","replicate 1, z-score of dpERK with insulin":0.28}
{"gene":"Or74a","dsRNA":"DRSC11245","replicate 1, z-score of dpERK with insulin":-0.12}
{"gene":"dpr16","dsRNA":"DRSC12217","replicate 1, z-score of dpERK with insulin":-0.25}
{"gene":"dpr16","dsRNA":"DRSC12249","replicate 1, z-score of dpERK with insulin":-0.87}

Additional results follow.
gene | dsRNA | replicate 1, z-score of dpERK with insulin
CG34029 | DRSC03909 | 0.58
smash | DRSC12139 | -0.52
smash | DRSC12141 | 0.15
smash | DRSC12239 | -1.35
smash | DRSC12289 | 0.77
l(2)34Fd | DRSC01911 | 0.4
Spn28Da | DRSC02162 | -0.09
sbm | DRSC20185 | 0.34
CG4271 | DRSC00649 | 0.57
S6k | DRSC11276 | 2.19
Ir10a | DRSC18891 | 1.27
Ir10a | DRSC19478 | -0.18
Ir10a | DRSC19479 | 0.98
galla-1 | DRSC05987 | -0.44
CG15594 | DRSC12280 | -0.19
CG34289 | DRSC13625 | 0.31
Prp18 | DRSC16802 | 2.54
CG1492 | DRSC19605 | -0.32
